Data from publication PMC3068935.

What was measured:
[1] = biological target: T1, FLAG-ATF3 (activating transcription factor 3) (UniProt P18847); assay: co-IP
T1 sequence: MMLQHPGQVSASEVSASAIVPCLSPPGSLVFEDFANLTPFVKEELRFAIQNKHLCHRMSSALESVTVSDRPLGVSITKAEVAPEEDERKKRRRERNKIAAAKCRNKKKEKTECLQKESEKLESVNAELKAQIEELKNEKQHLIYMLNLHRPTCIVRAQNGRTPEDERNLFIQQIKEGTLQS

[2] = biological target: T1, FLAG-ATF3 (activating transcription factor 3); assay: co-IP; 293FT cells transfected, total cell lysates; IP with anti-FLAG, IB with anti-His and anti-p53; 1 hour at 4°C, protein G-sepharose

Q: What does the source list for spliced HBZ (sHBZ)-Myc-His?
A: binding [1]: binds; binding [2]: binds

These are yes or no findings as the source states them, for the method shown. In cells and extracts the contact can be indirect. A result given as binding can be weak or reduced; the word gives no strength. Tags and fused reporters may be left off the sequences shown.
